Test system: NCI-60 cancer cell line panel
Assay: NCI-60 cancer cell line panel screen (percent growth inhibition)
Type: cell-based, human
Conditions: NCI-60 cell lines; 10 μM, 48 hours
Description: FIG. 4 illustrates analysis of cell-killing activity of select compounds of the disclosure in NCI-60 cancer cell line panel. 8, 20, 27 and 23 (left panel) and taxol, thalipcarpine, and maytansine activity (right panel) in the NCI-60 cell lines.
This screening platform measures the antitumor activities of compounds expressed as percent growth inhibition, which differentiates the compound's activity at inhibiting cell proliferation and reducing cell number (i.e. killing cells). […] Two GBM cells lines included in the NCI-60 panel, SF-295 and SF-539, were among the top ten cell lines that were the most sensitive to 8, 20 and 27 treatments (FIG. 6). Their respective EC50 values of the compounds measured in these cells mirrored their EC50 values measured in T98G cells. Additional cell lines among the top ten cell lines that were sensitive to these three compounds were three cell lines of colon cancer origin: Colo205, HT-29 and HCC-2998 (FIG. 5).

## CCn1c2ccccc2c2cc(C(=O)c3cccc4c3CCCN4)ccc21 [Compound 23, (9-ethyl-9H-carbazol-3-yl)(1,2,3,4-tetrahydroquinolin-5-yl)methanone]
  growth inhibition: delta: 10.42
  growth inhibition: range: 28.77
